Laboratory results: PubChem BioAssay AID1159578 (Peter MacCallum Cancer Centre, 2015)

- Purpose: 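Genome-wide hunt for genes controlling movement of lymphatic endothelial cells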 (primary screen)
- Cell system: human lymphatic endothelial cells
- Knock-down reagent: siRNA pool against human genes, 40 nM
- Time to read-out: 48 h after transfection
- Read-out: 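High-content imaging of dye-stained cells in a scratch assay measures filled wound area and nuclei per well; duplicate means given as ratio to mock and robust z-score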
- Scale: migration robust z-score: higher = faster migration into the scratch; migration relative to mock: higher = more scratch area covered than mock; nuclei per well: higher = more cells in the well
- Call rule: 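Migration changed when robust z exceeds 2 or falls below -2 and mean nuclei number is at least 3300; otherwise not called changed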
- Meaning of the calls: active = migration changed; inactive = no migration change, or too few cells
The deposit covers about 18,000 reagents; below is a part drawn at random. In the full data, about 1,030 (5.7%) were called active. 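Inactive calls also include pools with fewer than 3300 nuclei, whose migration was not assessed.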 Raw values vary from plate to plate and are shown uncorrected. Entries without a mark were called inactive. The numbers tell different reagents against one gene apart. Reagent sequences are not shown.

Gene | reagent no. | migration robust z-score | migration class with cell-count check | migration relative to mock | nuclei per well, duplicate mean
RGN | 1 | 0.18 | migration z between -2 and 2; enough cells | 0.94 | 5538
CCDC17 | 1 | -1.08 | migration z between -2 and 2; enough cells | 0.6 | 5944
SELENOV | 1 | -0.86 | migration z between -2 and 2; enough cells | 0.66 | 4933
STIL | 1 | 0.09 | migration z between -2 and 2; enough cells | 0.91 | 6524
UMPS | 1 | 1.35 | migration z between -2 and 2; enough cells | 1.06 | 5162
MRPS10 | 1 | -2.66 (active) | migration z below -2; enough cells | 0.22 | 3595
TMX1 | 1 | 1.03 | migration z between -2 and 2; enough cells | 1 | 5937
CNOT8 | 1 | 0.05 | migration z between -2 and 2; enough cells | 0.82 | 5256
UCK2 | 1 | -1.17 | migration z between -2 and 2; enough cells | 0.58 | 3623
HTR1D | 1 | -0.91 | migration z between -2 and 2; enough cells | 0.63 | 6674
RAPH1 | 1 | 2.08 (active) | migration z above 2; enough cells | 1.42 | 5752
LCMT1 | 1 | 0.54 | migration z between -2 and 2; enough cells | 0.91 | 5782
PRDM14 | 1 | 1.14 | migration z between -2 and 2; enough cells | 1.02 | 6114
IAH1 | 1 | -0.81 | migration z between -2 and 2; enough cells | 0.68 | 5548
ZBTB17 | 1 | 0.03 | migration z between -2 and 2; enough cells | 0.81 | 4532
CCDC7 | 1 | -1.12 | migration z between -2 and 2; enough cells | 0.59 | 5253
CCDC7 | 2 | -0.04 | migration z between -2 and 2; enough cells | 0.87 | 5535
CHRM5 | 1 | -0.52 | migration z between -2 and 2; enough cells | 0.7 | 6694
DENND2C | 1 | 0.29 | migration z between -2 and 2; enough cells | 0.96 | 6363
PCDH8 | 1 | 1.3 | migration z between -2 and 2; enough cells | 1.22 | 6704
C3AR1 | 1 | 0.65 | migration z between -2 and 2; enough cells | 0.93 | 5486
PITPNC1 | 1 | -0.16 | migration z between -2 and 2; enough cells | 0.84 | 5952
SELENOP | 1 | 1.24 | migration z between -2 and 2; enough cells | 1.21 | 6450
MAP1LC3C | 1 | -0.03 | migration z between -2 and 2; enough cells | 0.88 | 6882
FAM13B | 1 | 1.62 | migration z between -2 and 2; enough cells | 1.3 | 6884
PMEPA1 | 1 | -3.13 | under 3300 nuclei; migration not judged | 0.07 | 2922
SLC30A5 | 1 | 0.1 | migration z between -2 and 2; enough cells | 0.82 | 5198
KHDC3L | 1 | -0.75 | migration z between -2 and 2; enough cells | 0.69 | 5536
RPL27A | 1 | -1.68 | migration z between -2 and 2; enough cells | 0.45 | 4562
OR5F1 | 1 | -1.3 | migration z between -2 and 2; enough cells | 0.54 | 5416
CNMD | 1 | -1.27 | migration z between -2 and 2; enough cells | 0.55 | 6108
PIGY | 1 | 0.99 | migration z between -2 and 2; enough cells | 1.15 | 6239
SERPINC1 | 1 | 0.08 | migration z between -2 and 2; enough cells | 0.82 | 5738
LRRCC1 | 1 | -0.96 | migration z between -2 and 2; enough cells | 0.64 | 4716
COQ10B | 1 | 0.72 | migration z between -2 and 2; enough cells | 1.07 | 6546
OPCML | 1 | 0.78 | migration z between -2 and 2; enough cells | 0.96 | 5787
LVRN | 1 | 0.36 | migration z between -2 and 2; enough cells | 0.98 | 5128
OR2W1 | 1 | -1.65 | migration z between -2 and 2; enough cells | 0.46 | 4018
NSMCE1 | 1 | 1.34 | migration z between -2 and 2; enough cells | 1.23 | 6766

A portion of the results above, as a working copy:
Gene | reagent no. | migration robust z-score | migration class with cell-count check | migration relative to mock | nuclei per well, duplicate mean
SELENOV | 1 | -0.86 | migration z between -2 and 2; enough cells | 0.66 | 4933
STIL | 1 | 0.09 | migration z between -2 and 2; enough cells | 0.91 | 6524
UMPS | 1 | 1.35 | migration z between -2 and 2; enough cells | 1.06 | 5162
